Laboratory results taken from paper doi:10.1101/2020.04.03.023895.
Results are given in words; binding and its absence hold for the method and conditions named. In cells and extracts the contact can be indirect. Some results given as binding are weak or reduced against the parent protein; the word gives no strength. For some of these results: Where a sequence is shown, tags or fusion partners need not be part of it.

What was measured:
[1] = target: T1, GST-Med19 ΔBS1-BS2 mutant (Drosophila) (UniProt Q9VVL6); assay: pull-down
T1 sequence: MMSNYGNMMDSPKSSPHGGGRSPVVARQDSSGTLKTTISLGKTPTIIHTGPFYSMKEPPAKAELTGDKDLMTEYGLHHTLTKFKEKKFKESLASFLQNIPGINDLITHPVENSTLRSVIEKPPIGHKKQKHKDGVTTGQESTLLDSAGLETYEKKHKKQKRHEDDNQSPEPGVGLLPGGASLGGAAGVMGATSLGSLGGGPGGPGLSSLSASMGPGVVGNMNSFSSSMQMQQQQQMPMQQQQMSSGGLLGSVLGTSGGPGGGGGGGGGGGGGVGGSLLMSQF

Med19-VC (Drosophila) = target: T2, Med19-VC (Drosophila) (UniProt Q9VVL6); assay: split reporter
T2 sequence: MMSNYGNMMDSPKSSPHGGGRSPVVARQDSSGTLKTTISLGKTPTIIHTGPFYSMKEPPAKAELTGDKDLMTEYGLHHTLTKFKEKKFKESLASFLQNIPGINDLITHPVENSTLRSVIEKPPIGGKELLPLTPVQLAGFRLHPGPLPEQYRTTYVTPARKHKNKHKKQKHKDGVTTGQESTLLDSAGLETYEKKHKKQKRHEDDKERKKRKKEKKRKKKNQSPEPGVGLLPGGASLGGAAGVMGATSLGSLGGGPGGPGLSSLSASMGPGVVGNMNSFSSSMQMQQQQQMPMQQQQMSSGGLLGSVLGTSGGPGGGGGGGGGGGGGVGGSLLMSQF

[2] = target: T3, GST fusion of Med1 largest isoform A (Med1^A) (Drosophila) (UniProt Q9VP05); assay: pull-down
T3 sequence: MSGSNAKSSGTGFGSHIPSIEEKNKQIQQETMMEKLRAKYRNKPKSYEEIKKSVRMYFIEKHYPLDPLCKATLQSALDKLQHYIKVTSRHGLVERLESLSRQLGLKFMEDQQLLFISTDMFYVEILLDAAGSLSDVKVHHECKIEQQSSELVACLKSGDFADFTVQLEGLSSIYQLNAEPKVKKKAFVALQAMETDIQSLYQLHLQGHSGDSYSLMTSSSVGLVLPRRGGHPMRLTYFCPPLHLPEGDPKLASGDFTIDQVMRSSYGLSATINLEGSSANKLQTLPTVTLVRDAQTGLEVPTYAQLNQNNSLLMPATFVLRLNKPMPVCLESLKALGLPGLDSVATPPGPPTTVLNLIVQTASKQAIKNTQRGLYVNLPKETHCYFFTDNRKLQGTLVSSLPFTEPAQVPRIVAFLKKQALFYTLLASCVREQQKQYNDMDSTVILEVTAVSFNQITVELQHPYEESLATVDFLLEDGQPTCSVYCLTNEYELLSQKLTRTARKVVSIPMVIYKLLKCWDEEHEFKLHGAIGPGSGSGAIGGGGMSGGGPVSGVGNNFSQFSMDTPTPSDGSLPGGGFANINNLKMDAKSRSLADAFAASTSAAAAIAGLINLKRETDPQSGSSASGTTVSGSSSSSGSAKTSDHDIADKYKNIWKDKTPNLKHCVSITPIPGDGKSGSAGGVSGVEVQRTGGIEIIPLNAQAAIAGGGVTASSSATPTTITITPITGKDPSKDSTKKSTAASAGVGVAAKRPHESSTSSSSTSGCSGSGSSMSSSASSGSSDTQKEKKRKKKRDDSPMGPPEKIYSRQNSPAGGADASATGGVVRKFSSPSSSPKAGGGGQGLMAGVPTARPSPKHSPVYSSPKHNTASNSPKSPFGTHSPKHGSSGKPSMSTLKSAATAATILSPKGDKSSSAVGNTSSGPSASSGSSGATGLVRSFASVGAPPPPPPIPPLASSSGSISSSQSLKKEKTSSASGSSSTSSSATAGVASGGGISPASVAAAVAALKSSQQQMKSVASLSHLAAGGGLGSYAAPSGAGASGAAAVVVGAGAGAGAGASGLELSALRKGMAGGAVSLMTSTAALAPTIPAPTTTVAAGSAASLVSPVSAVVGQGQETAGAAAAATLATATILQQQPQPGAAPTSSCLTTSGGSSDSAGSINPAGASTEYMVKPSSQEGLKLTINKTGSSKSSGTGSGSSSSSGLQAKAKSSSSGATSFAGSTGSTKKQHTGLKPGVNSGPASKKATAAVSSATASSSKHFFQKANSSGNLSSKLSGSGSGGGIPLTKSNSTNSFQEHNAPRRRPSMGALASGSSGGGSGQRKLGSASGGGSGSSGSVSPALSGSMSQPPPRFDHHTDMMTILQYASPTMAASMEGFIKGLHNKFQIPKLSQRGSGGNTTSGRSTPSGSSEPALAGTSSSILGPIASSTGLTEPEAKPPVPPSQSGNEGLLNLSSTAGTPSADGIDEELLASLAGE

[3] = target: full-length recombinant GST-Pnr (Drosophila) (UniProt P52168); assay: pull-down

In the case of “Pnr 1-291 HA tagged form (from UniProt P52168 1-291) (domain or fragment)”, the binding [1] is reported as “no binding”.

In the case of VN-Pnr (from UniProt P52168 1-540), the binding (Med19-VC (Drosophila)) is reported as “binds”.

B1: in vitro-translated full-length Med19 (protein, UniProt Q9VVL6 1-337)
chain: MMSNYGNMMDSPKSSPHGGGRSPVVARQDSSGTLKTTISLGKTPTIIHTGPFYSMKEPPAKAELTGDKDLMTEYGLHHTLTKFKEKKFKESLASFLQNIPGINDLITHPVENSTLRSVIEKPPIGGKELLPLTPVQLAGFRLHPGPLPEQYRTTYVTPARKHKNKHKKQKHKDGVTTGQESTLLDSAGLETYEKKHKKQKRHEDDKERKKRKKEKKRKKKNQSPEPGVGLLPGGASLGGAAGVMGATSLGSLGGGPGGPGLSSLSASMGPGVVGNMNSFSSSMQMQQQQQMPMQQQQMSSGGLLGSVLGTSGGPGGGGGGGGGGGGGVGGSLLMSQF
modifications: 35S-methionine labelled
With B1 the binding [2] was “binds” and the binding [3] was “binds”.
